# Percent effect of library compounds

T. brucei: 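Whole-parasite assay of Trypanosoma brucei over 72 hours; the read-out is not stated. Compounds at 30 µM. Direction is inferred from retests: higher values go with stronger inhibition. Values scatter widely below zero; nearly all retest evidence comes from the higher of the two concentrations used. Of about 64,000 compounds tested this way, about 940 (1.5%) reached 50% or more in at least one test.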
Leishmania in macrophages: 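Cell assay of Leishmania donovani living inside macrophages; the read-out is not stated. Concentration: 30 µM. Direction is inferred from retests: higher values go with stronger inhibition. Of about 69,000 compounds tested this way, about 1,000 (1.5%) reached 50% or more in at least one test.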
Toxoplasma: 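Assay of Toxoplasma gondii numbers, read through their beta-galactosidase reporter with a colour substrate. Tested at 10 µM. The record gives no direction; the compounds picked for IC50 retests had high values, so higher reads as fewer parasites. Of about 67,000 compounds tested this way, about 260 (0.38%) reached 50% or more in at least one test.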

Each number is a percent effect as filed. How 0% and 100% were set is not recorded. Most values in the screen are low, and negative values occur. The compounds are a random part of those screened. Two or more numbers in one place are separate tests of the same structure; such repeats can differ widely.

With [H][C@@]12C[C@H](C(=O)NCc3ccco3)CN(C(=O)c3ccoc3C)[C@]1([H])CCO2 the screen gave T. brucei: -7.505%; Leishmania in macrophages: 14.9%; Toxoplasma: 3.232%. CC(CNC(=O)NCc1ccsc1)CC1(C)OCCO1 (stereo not given) read T. brucei: -41.07%; Leishmania in macrophages: 19%; Toxoplasma: -1.294%. CC(C)COc1cncc(NCCc2nnc3ccccn23)n1 gave T. brucei: -26.86%; Leishmania in macrophages: -0.7721%; Toxoplasma: 0.06378%. Cc1nc(CCC(=O)NCC(N)=O)cc(C2CCNCC2)n1 gave T. brucei: -14.92%; Leishmania in macrophages: -3.809% and -12.79%; Toxoplasma: 10.55%. For CCN(CC)CCNCc1cc(O)c2cc(C)ccc2n1 the result was T. brucei: -18.09%; Leishmania in macrophages: 16.31%; Toxoplasma: 4.73%. O=C(c1cnccn1)N1CCCC(C2=Nc3ccccc3S(=O)(=O)N2)C1 (stereo not given) gave T. brucei: -15.76%; Leishmania in macrophages: -20.53%; Toxoplasma: 7.152%. Result for CC(C)CN(Cc1nnc(-c2ccco2)o1)CC(C)C was T. brucei: -22.71%; Leishmania in macrophages: -3.488%; Toxoplasma: -3.495%. Result for O=C(O)C(F)(F)F.O=C(O)C(F)(F)F.[H][C@]12CCC(=O)N(c3cccnc3)[C@@]1([H])CCN2c1ncc(C)cn1 was T. brucei: -15.47%; Leishmania in macrophages: -26.59%; Toxoplasma: 5.465%.

O=C(c1ccco1)N1Cc2cnn(CC3CC3)c2C(COCC2CC2)C1 (stereo not given) gave T. brucei: -26.58%; Leishmania in macrophages: 28.17%; Toxoplasma: 13.85%. Result for COC(C)Cc1nc(-c2cnn3c(C)cc(C)nc23)no1 (stereo not given) was T. brucei: -80.99%; Leishmania in macrophages: -4.421%; Toxoplasma: 21.78%. With Cc1cnc(C)c(-c2cc(O)c3c(c2)CN(c2ncccn2)CCO3)n1 the screen gave Leishmania in macrophages: -38.51%; Toxoplasma: -28.25%. With Cn1cnc2c1CCN(Cc1nc(Cc3ccccc3)no1)C2 the screen gave T. brucei: 31.02%; Leishmania in macrophages: 16.36%; Toxoplasma: -5.587%. For Cn1cc(CCC(=O)N2CCCN(c3ncccc3C#N)CC2)cn1 the result was T. brucei: -11.07%; Leishmania in macrophages: 1.496%; Toxoplasma: 6.726%. For COc1ccc(-c2nnc(SC(C)C(N)=O)[nH]2)c(OC)c1 (stereo not given) the result was T. brucei: -2.402%; Leishmania in macrophages: 7.363%; Toxoplasma: 3.023%. O=C(CCc1nc(Cl)n[nH]1)N1CCC2(CCCNC2=O)C1 (stereo not given) read T. brucei: -12.69%; Leishmania in macrophages: 23.3%; Toxoplasma: -1.218%. With c1ccc(COCCN2CCc3[nH]cnc3C2c2ccoc2)cc1 (stereo not given) the screen gave T. brucei: -40.62%; Leishmania in macrophages: -6.622%; Toxoplasma: 0.7941%.

Clc1ccccc1-c1nnc(CN2CCCC2Cn2cncn2)o1 (stereo not given) read Leishmania in macrophages: 5.312%; Toxoplasma: 7.086%. With CN(C)C(=O)CN1CCc2onc(-c3ccccc3F)c2C1 the screen gave T. brucei: -39.09%; Leishmania in macrophages: -3.25%; Toxoplasma: 16.13%. Result for [H][C@@]12CCN(C)[C@@]1([H])CCN2Cc1ccc2c(c1)OCO2 was T. brucei: -4.126%; Leishmania in macrophages: 10.89%; Toxoplasma: -12.84%. With Cc1nnc(NC(=O)NCc2ccoc2)s1 the screen gave Leishmania in macrophages: 22.58%; Toxoplasma: 2.199%. Cc1ncccc1-c1cc2cccnc2n1CCCNC(=O)C(C)(C)C.Cl read T. brucei: -11.81%; Leishmania in macrophages: 2.743%; Toxoplasma: -2.194%. For CC1COCCN1c1ncnc2sccc12 (stereo not given) the result was T. brucei: -29.31%; Leishmania in macrophages: 30.25%; Toxoplasma: 2.209%. Result for O=C(O)C(F)(F)F.[H][C@@]12C[C@H](C(=O)N(C)C)CN(Cc3ccc(F)cc3)[C@]1([H])CCO2 was T. brucei: 0.4473%; Leishmania in macrophages: 45.18%; Toxoplasma: -9.473%. Result for COCCN1CCC2(CCN(Cc3nccs3)CC2)C1=O was T. brucei: -32.41%; Leishmania in macrophages: -21.45%; Toxoplasma: 2.671%.

O=C(O)C(F)(F)F.O=C(O)C(F)(F)F.O=C(c1c[nH]cn1)N1CCCn2c(CN3CCCCC3)nnc2C1 read T. brucei: -29.63%; Leishmania in macrophages: -11.68% and 15.67%; Toxoplasma: -3.95%. CC1c2ncc(CNC(=O)C3CC3)n2CCN1Cc1ccsc1.O=C(O)C(F)(F)F (stereo not given) gave T. brucei: -8.055%; Leishmania in macrophages: -4.952%; Toxoplasma: -10.3%. For CN1CCN(CC(=O)NCc2ccco2)Cc2ccccc21 the result was T. brucei: 16.23%; Leishmania in macrophages: 10.13%; Toxoplasma: -2.879%. O=C(NC1CC1)C1(Cc2ccccc2-c2ccncc2)CCOCC1 read T. brucei: -2.257%; Leishmania in macrophages: 15.77%; Toxoplasma: 6.42%. Result for O=C(Nc1ccccn1)C1CCN(C(=O)COc2ccccc2F)C1 (stereo not given) was T. brucei: -20.37%; Leishmania in macrophages: -6.854% and -12.41%; Toxoplasma: 16.67%. O=C(Cc1ccsc1)N1CCCC(c2n[nH]c3nccnc23)C1 (stereo not given) gave T. brucei: -17.68%; Leishmania in macrophages: -11.17%; Toxoplasma: 18.64%.

Some entries from above, unchanged:

{"compound": "O=C(Nc1ccccn1)C1CCN(C(=O)COc2ccccc2F)C1", "stereo": "stereo not given", "T. brucei": -20.37, "Leishmania in macrophages": "-6.854 and -12.41", "Toxoplasma": 16.67}
{"compound": "Cc1cnc(C)c(-c2cc(O)c3c(c2)CN(c2ncccn2)CCO3)n1", "Leishmania in macrophages": -38.51, "Toxoplasma": -28.25}

From ChEMBL document CHEMBL3988442, “University of Dundee, Small-Polar-MMV Screening Library” (2021).